In PMC4264851:
Where two headings read alike, the source gives them in different places. No constants are given. Whether binding was seen depends on the method and setting. In cells and extracts the contact can be indirect. Here binding means that the protein was enriched with, or labelled near, the bait; the list need not be complete. For some of these results: Tags and fused reporters may be left off the sequences shown.

Sequences of proteins named here, by UniProt entry; tags and fusion partners are left off.
UniProt P42945: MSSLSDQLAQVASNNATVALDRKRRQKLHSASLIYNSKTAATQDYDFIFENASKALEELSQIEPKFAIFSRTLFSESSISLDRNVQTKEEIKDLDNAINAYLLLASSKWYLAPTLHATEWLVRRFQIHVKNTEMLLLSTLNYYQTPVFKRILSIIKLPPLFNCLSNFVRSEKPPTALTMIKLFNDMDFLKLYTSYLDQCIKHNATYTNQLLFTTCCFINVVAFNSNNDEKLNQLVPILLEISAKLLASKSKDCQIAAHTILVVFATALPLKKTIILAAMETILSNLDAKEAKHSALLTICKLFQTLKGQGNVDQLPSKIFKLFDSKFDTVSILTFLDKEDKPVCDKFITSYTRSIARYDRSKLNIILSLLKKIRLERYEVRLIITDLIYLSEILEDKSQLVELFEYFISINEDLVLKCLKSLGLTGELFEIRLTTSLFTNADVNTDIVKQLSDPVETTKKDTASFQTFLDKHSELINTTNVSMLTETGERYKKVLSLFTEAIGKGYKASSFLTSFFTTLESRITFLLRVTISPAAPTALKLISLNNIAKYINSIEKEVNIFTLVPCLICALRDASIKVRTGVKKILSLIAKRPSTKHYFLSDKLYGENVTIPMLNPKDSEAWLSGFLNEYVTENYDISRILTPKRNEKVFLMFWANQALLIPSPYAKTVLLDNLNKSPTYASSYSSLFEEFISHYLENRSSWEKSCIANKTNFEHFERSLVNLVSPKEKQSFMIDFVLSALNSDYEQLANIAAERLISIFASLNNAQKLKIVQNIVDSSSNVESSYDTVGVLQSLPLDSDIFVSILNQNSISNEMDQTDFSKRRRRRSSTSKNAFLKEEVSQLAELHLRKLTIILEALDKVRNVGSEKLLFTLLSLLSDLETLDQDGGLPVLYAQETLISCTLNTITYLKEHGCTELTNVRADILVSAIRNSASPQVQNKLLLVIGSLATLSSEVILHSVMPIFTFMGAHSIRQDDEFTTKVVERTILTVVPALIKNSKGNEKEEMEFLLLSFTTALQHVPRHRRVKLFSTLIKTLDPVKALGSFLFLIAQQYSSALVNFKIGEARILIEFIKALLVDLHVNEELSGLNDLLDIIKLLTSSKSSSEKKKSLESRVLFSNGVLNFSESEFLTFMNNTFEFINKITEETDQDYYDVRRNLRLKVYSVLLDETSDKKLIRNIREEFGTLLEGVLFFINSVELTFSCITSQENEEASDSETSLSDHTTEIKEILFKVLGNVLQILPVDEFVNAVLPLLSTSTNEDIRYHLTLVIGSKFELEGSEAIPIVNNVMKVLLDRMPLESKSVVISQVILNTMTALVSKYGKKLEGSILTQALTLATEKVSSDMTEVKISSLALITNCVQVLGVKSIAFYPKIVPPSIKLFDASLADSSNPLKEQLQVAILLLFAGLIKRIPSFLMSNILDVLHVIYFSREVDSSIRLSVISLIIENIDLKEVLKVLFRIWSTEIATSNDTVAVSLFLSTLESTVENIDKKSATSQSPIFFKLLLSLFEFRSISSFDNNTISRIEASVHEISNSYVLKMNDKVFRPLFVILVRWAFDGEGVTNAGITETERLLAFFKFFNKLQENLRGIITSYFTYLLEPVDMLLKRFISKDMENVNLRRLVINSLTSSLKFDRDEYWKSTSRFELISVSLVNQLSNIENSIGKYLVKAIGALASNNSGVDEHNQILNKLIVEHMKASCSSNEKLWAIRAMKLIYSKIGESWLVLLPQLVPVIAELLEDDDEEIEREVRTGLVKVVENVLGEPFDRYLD

What was measured:
[1] = target: T1, Nan1-FLAG (S. cerevisiae) (UniProt Q02931); assay: affinity purification with mass spectrometry; only Nan1-FLAG and Utp10 co-expressed in SF21 cells (bacmid K1999); one-step anti-FLAG purification, FLAG peptide elution; SDS-PAGE and MS
T1 sequence: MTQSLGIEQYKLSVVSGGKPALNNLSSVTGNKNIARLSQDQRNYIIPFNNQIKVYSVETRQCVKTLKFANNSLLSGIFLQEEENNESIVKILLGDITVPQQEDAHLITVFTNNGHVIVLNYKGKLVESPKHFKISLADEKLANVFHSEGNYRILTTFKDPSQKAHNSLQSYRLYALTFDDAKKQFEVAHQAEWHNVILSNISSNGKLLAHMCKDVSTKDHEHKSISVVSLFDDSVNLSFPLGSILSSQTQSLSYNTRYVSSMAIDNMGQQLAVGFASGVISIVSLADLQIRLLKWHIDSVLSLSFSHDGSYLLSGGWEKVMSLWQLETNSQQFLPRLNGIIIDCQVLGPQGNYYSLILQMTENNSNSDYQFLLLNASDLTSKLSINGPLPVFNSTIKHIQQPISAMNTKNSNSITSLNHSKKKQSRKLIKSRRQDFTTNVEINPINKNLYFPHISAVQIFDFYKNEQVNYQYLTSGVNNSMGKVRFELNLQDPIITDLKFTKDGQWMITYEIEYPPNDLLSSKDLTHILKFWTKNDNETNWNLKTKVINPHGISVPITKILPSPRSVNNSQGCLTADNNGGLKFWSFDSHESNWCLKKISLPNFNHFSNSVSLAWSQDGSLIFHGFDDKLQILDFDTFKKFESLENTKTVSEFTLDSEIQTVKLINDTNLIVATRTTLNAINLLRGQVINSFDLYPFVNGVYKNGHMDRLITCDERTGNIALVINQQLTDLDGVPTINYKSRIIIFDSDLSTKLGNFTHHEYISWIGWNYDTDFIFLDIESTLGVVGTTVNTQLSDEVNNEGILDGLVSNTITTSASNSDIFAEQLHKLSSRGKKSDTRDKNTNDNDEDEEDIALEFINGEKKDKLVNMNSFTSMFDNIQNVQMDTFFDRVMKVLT

Nan1-HA (S. cerevisiae) [2] = target: T2, Nan1-HA (S. cerevisiae) (UniProt Q02931); assay: affinity purification with mass spectrometry; bacmid K2000 (all seven tUTP candidates); two-step: anti-FLAG eluate (Utp15-FLAG) purified again on anti-HA affinity matrix with Nan1-HA as bait, HA peptide elution; SDS-PAGE, Coomassie, MS of bands
T2 sequence: T1 sequence

Utp4-TAP (S. cerevisiae) [3] = target: T3, Utp4-TAP (S. cerevisiae) (UniProt Q06679); assay: affinity purification with mass spectrometry; only Utp4-TAP, Utp5 and Utp15-FLAG co-expressed in SF21 cells (bacmid K2209); one-step, bait Utp4-TAP on IgG-coupled beads, TEV elution; SDS-PAGE and MS
T3 sequence: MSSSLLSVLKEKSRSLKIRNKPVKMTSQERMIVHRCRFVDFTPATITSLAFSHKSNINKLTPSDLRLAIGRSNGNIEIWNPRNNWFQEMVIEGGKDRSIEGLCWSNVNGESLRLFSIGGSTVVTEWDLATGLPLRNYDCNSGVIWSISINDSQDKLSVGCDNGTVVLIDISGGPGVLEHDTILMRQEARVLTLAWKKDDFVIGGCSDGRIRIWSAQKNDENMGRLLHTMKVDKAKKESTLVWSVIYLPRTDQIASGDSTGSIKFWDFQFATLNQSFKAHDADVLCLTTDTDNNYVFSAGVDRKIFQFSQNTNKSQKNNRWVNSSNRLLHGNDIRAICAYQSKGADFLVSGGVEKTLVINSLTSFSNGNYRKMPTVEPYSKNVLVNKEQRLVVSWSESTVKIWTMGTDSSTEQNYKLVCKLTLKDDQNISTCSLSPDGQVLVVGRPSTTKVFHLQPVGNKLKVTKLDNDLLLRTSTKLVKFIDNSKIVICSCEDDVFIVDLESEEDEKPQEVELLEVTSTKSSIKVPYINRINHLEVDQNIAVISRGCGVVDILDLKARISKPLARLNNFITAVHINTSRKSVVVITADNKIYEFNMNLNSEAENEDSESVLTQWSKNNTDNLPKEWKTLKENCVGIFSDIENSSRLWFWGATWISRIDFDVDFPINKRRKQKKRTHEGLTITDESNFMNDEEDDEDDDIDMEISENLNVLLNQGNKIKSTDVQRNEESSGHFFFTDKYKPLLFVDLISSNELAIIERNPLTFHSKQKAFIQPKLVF

Nan1-HA (S. cerevisiae) [4] = target: T2, Nan1-HA (S. cerevisiae); assay: affinity purification with mass spectrometry; bacmid K2000 (all seven tUTP candidates); two-step: anti-FLAG eluate (Utp15-FLAG) purified again on anti-HA affinity matrix with Nan1-HA as bait, HA peptide elution; SDS-PAGE, Coomassie, MS of bands; remark: listed apart in the source
Utp4-TAP (S. cerevisiae) [5] = target: T3, Utp4-TAP (S. cerevisiae); assay: affinity purification with mass spectrometry; Utp4-TAP, Utp5, Utp8, Utp9 and Utp15-FLAG co-expressed in SF21 cells (bacmid K2123), without Nan1 and Utp10; one-step, bait Utp4-TAP on IgG Sepharose, TEV elution; SDS-PAGE, Coomassie, MS of bands
[6] = target: T4, Utp12-FLAG (S. cerevisiae) (UniProt Q12220); assay: affinity purification with mass spectrometry; Pwp2, Utp6-HA, Utp12-FLAG, Utp13, Utp18 and Utp21 co-expressed in SF21 cells (bacmid K1992); one-step, bait Utp12-FLAG on anti-FLAG affinity matrix, FLAG peptide elution; SDS-PAGE, Coomassie, MS of bands
T4 sequence: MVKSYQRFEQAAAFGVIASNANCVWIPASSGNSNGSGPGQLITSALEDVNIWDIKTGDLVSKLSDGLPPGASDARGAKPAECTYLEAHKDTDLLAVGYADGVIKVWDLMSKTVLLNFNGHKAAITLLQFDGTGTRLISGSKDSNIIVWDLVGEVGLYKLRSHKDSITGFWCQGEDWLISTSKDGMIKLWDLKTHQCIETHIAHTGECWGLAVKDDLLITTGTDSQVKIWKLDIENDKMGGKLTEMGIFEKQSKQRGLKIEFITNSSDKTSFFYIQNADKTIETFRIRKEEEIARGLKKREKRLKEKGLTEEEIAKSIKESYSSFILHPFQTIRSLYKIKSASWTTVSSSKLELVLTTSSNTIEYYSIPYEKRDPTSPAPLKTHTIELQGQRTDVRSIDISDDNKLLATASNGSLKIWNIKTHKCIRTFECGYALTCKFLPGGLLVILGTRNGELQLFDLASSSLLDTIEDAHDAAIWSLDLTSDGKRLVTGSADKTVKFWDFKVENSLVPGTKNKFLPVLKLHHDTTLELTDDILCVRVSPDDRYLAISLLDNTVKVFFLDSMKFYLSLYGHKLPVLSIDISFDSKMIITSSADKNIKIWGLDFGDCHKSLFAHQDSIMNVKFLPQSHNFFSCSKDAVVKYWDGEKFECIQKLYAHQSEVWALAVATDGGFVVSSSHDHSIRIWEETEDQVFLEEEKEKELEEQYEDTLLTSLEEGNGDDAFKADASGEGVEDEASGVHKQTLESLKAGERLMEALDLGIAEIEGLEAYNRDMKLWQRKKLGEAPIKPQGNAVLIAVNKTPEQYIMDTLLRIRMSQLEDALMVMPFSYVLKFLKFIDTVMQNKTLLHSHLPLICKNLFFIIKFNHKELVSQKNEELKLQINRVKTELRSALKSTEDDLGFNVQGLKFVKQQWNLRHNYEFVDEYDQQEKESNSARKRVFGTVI

[7] = target: T5, Utp21-TAP (S. cerevisiae) (UniProt Q06078); assay: affinity purification with mass spectrometry; only Utp21-TAP, Utp6-HA, Utp18 and Pwp2 co-expressed in SF21 cells (bacmid K2137); one-step, bait Utp21-TAP on IgG-coupled beads with TEV elution, or bait Utp6-HA by anti-HA affinity purification; SDS-PAGE and MS
T5 sequence: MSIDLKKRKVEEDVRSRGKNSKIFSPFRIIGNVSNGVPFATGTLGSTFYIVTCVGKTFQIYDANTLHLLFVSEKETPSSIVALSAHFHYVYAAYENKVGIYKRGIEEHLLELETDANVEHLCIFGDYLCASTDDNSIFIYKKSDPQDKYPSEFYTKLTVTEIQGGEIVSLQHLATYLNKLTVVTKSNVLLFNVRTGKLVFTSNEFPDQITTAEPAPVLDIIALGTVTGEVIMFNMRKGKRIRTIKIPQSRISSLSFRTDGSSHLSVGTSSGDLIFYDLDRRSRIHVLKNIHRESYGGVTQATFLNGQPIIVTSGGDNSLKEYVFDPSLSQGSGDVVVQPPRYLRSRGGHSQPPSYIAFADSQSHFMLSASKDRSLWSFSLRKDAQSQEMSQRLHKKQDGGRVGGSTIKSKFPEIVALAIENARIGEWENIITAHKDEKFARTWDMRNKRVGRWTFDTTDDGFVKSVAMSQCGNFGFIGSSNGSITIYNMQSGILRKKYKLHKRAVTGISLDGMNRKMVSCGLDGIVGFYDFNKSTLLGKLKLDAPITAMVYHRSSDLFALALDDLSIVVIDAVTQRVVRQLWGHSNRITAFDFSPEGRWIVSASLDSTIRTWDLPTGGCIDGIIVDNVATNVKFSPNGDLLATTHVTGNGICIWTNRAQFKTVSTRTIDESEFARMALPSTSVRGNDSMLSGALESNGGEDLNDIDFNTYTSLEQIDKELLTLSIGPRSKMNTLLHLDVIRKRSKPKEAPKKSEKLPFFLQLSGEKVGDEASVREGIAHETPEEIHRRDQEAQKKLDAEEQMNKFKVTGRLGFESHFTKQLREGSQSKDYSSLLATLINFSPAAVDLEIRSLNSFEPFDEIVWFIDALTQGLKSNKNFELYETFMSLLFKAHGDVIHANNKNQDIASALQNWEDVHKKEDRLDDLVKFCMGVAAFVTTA

Utp10 (from UniProt P42945 1-1769) was tested, and the binding [1] was “binds” and the binding (Nan1-HA (S. cerevisiae) [2]) was “binds”.

B1: Utp15-FLAG (protein, UniProt Q04305 1-513)
chain: MSTARPRIITSKAPLLPQQTTPEQRYWRQYTSAQLVKEHNSVTHISFNPQHPHDFAVTSSTRVQIFSSRTRQVIKTFSRFKDVVYSASFRSDGKLLCAGDATGLVSVYDSYNPRTILLSINASTHPTHVTKFHTQDNKILATASDDRVTRLWDISNAYEPQLELTGATDYVRTLSFIPAAPHLVATGSYDGLIRLYDTRSSGSTPIYSLNHDQPVENVIAVSPTQIVSCGGNNFKVWDLTSNKKLYERGNFNKAVTCLDYVENFDSPMQSALIASSLDGHVKVFDPLDNFQVKFGWKFSGPVLSCAVSPSTAQGNRHLVAGLSSGLLAIRTKKKEKRSSDKENAPASFNKNAKSNNFQRMMRGSEYQGDQEHIIHNDKVRSQRRMRAFERNINQFKWSEALDNAFVPGMAKELTLTVLQELRKRGKVRVALYGRDESTLEPLLNWCLKGIEDVRSASIVADWVAVVLELYGNTLESSPVLQELMIDLKTKVRHEIHKSKEAQRIEGMLQLLTS
In the case of B1, the binding (Utp4-TAP (S. cerevisiae) [3]) is reported as “binds”, the binding (Nan1-HA (S. cerevisiae) [4]) is reported as “binds weakly” and the binding (Utp4-TAP (S. cerevisiae) [5]) is reported as “binds”.

B2: Pwp2 (protein, UniProt P25635 1-923)
chain: MKSDFKFSNLLGTVYRQGNITFSDDGKQLLSPVGNRVSVFDLINNKSFTFEYEHRKNIAAIDLNKQGTLLISIDEDGRAILVNFKARNVLHHFNFKEKCSAVKFSPDGRLFALASGRFLQIWKTPDVNKDRQFAPFVRHRVHAGHFQDITSLTWSQDSRFILTTSKDLSAKIWSVDSEEKNLAATTFNGHRDYVMGAFFSHDQEKIYTVSKDGAVFVWEFTKRPSDDDDNESEDDDKQEEVDISKYSWRITKKHFFYANQAKVKCVTFHPATRLLAVGFTSGEFRLYDLPDFTLIQQLSMGQNPVNTVSVNQTGEWLAFGSSKLGQLLVYEWQSESYILKQQGHFDSTNSLAYSPDGSRVVTASEDGKIKVWDITSGFCLATFEEHTSSVTAVQFAKRGQVMFSSSLDGTVRAWDLIRYRNFRTFTGTERIQFNCLAVDPSGEVVCAGSLDNFDIHVWSVQTGQLLDALSGHEGPVSCLSFSQENSVLASASWDKTIRIWSIFGRSQQVEPIEVYSDVLALSMRPDGKEVAVSTLKGQISIFNIEDAKQVGNIDCRKDIISGRFNQDRFTAKNSERSKFFTTIHYSFDGMAIVAGGNNNSICLYDVPNEVLLKRFIVSRNMALNGTLEFLNSKKMTEAGSLDLIDDAGENSDLEDRIDNSLPGSQRGGDLSTRKMRPEVRVTSVQFSPTANAFAAASTEGLLIYSTNDTILFDPFDLDVDVTPHSTVEALREKQFLNALVMAFRLNEEYLINKVYEAIPIKEIPLVASNIPAIYLPRILKFIGDFAIESQHIEFNLIWIKALLSASGGYINEHKYLFSTAMRSIQRFIVRVAKEVVNTTTDNKYTYRFLVSTDGSMEDGAADDDEVLLKDDADEDNEENEENDVVMESDDEEGWIGFNGKDNKLPLSNENDSSDEEENEKELP
For B2, the binding [6] was “binds” and the binding [7] was “binds”.
